Assay results published in PubChem BioAssay AID504648 (National Center for Advancing Translational Sciences (NCATS), 2011).
The campaign covered roughly 390,000 compounds. About 610 (0.16%) were called active. The shares of active, inactive and inconclusive entries below differ from those in the screen. Calls follow the shape of the dose curve; as a rule, active = well fitted inhibition curve with a large enough effect; inconclusive = small, poorly fitted or top-dose-only effect, or effect the other way, or another doubt; inactive = no such curve, though single readings can be large or run the other way. Where the call is inconclusive, the potency comes from a doubtful curve fit.

Assay: Nrf2 qHTS screen for inhibitors: counterscreen for cytotoxicity
Settings: A549 ARE-Fluc cells, CellTiter-Fluor viability, 18-24 h; activity change, negative = cytotoxicity: at 46 µM (top of the series)
Summary of the method: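 A549 ARE_Fluc cells in 5% FBS OPTI-MEM were exposed to compounds in concentration-response for 18-24 h at 37 deg C. Viability was read by CellTiter-Fluor fluorescence (Ex 405/Em 525) after 30 min, before the luciferase read.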
% is scaled to controls: 0 for no effect and ±100 for the full control effect; potency is read from the fitted curve at half-maximal effect.

SMILES	Potency	activity change, negative = cytotoxicity
Cc1ccc(SCC(=O)NCC2COc3ccccc3O2)cc1 (stereo not drawn)	inconclusive: 9.2 µM [activator, partial curve, poor fit]	
CC(=O)c1ccc(S(=O)(=O)N2CCN(CCOc3ccc(Br)cc3)CC2)cc1	inconclusive: 4.61 µM [falling, partial curve, poor fit]	
COc1ccc(C2=NN(c3nc(C(=O)O)cs3)C(O)(C(F)(F)F)C2)c(OC)c1 (stereo not drawn)		inactive: -6.3%
COc1ccc(C(=O)c2c3ccc([N+](=O)[O-])cc3[n+]([O-])n2CCCC(N)=O)cc1	inconclusive: 32.6 µM [falling, partial curve, poor fit]	
CCC(C)Sc1nnc(CSc2nc3nc(C)cc(C)n3n2)o1 (stereo not drawn)	inconclusive: 29.1 µM [activator, single point]	
Nc1c(S(=O)(=O)c2cccs2)c2nc3ccccc3nc2n1/N=C/c1cccc(O)c1	inconclusive: 29.1 µM [falling, partial curve, poor fit]	
Cc1cccc2cc3c(nc12)SC(=NCC1CCCO1)N(Cc1ccco1)C3 (stereo not drawn)		inactive: -6.4%
O=C(c1cccc(OC2CCN(Cc3cc(F)cc(F)c3)CC2)c1)N1CCCC1	inconclusive: 16.4 µM [falling, single point]	
COc1ccc(-c2cc3ccc(O)c(CN4CCN(CCO)CC4)c3oc2=O)cc1OC	inconclusive: 18.4 µM [activator, partial curve]	
C[C@H](CO)N1C[C@H](C)[C@@H](CN(C)C(=O)Nc2ccc(C(F)(F)F)cc2)Oc2c(NC(=O)CCC(F)(F)F)cccc2C1=O		inactive: -2.86%
CCn1c(Sc2ccc([N+](=O)[O-])cn2)nnc1-c1ccco1	inconclusive: 23.1 µM [falling, partial curve, poor fit]	
COc1cc(/C=C2/S/C(=N/S(=O)(=O)Cc3ccccc3)NC2=O)c([N+](=O)[O-])cc1OC	inconclusive: 23.1 µM [falling, single point]	
Oc1cnc2ccccc2c1CN1CCOCC1		inactive: -12.7%
O=c1[nH]cnc2c1C(c1ccc(Cl)cc1)c1c(nc[nH]c1=O)O2	inconclusive: 0.184 µM [activator, full curve, poor fit]	
O=C1C2=C(Nc3ccccc3SC2c2ccc(Cl)c(Cl)c2)c2ccccc21 (stereo not drawn)	inconclusive: 29.1 µM [falling, single point]	
COC(=O)Cc1c(C)c2cc3c(c(C)c2oc1=O)OCN(CCc1ccc(F)cc1)C3	inconclusive: 14.6 µM [activator, single point]	
N#Cc1cc2c(nc1SCC(O)CS(=O)(=O)Cc1ccccc1)CCCC2 (stereo not drawn)	inconclusive: 29.1 µM [falling, single point]	
COc1ccc(-c2cc3ccccc3oc2=O)cc1NC(=S)NC(=O)c1ccc2c(c1)OCCO2	inconclusive: 18.4 µM [falling, single point]	
COc1ccc(NC(=O)Oc2cc(C)ccc2C(C)C)cc1		inactive: -5.53%
CC(=O)N1CCCc2cc(S(=O)(=O)N3CCCC(C(=O)NCc4ccccc4)C3)ccc21 (stereo not drawn)	inactive	
COc1cccc(NC(=O)c2nc(S(C)(=O)=O)ncc2Cl)c1	inconclusive: 20.6 µM [falling, single point]	
O=C(/C=C\c1ccccc1OC(=O)c1ccccc1F)c1cc2ccccc2o1	inconclusive: 25.9 µM [activator, partial curve, poor fit]	
Fc1ccccc1CNC(=S)Nc1cccc(C(F)(F)F)c1	inconclusive: 29.1 µM [falling, single point]	

SMILES	Potency	activity change, negative = cytotoxicity
Cc1c(-c2nc(N)nc(Nc3ccc(F)cc3)n2)oc2ccccc12	inconclusive: 29.1 µM [falling, partial curve, poor fit]	
COc1cc(CNCCc2ccccc2)cc(Br)c1OCC(=O)Nc1ccccc1C		inactive: -8.86%
CCCN1CCCc2cc(CN)ccc21		inactive: 0.426% [at 1.84 µM]
COc1ccccc1-n1c(SCC(=O)O)nc2c(sc(=S)n2-c2ccc(C)c(C)c2)c1=O		inactive: -0.202%
Cc1ccc(-c2cc(C(=O)N/N=C/c3ccc([N+](=O)[O-])o3)c3ccccc3n2)o1	inconclusive: 25.9 µM [falling, partial curve, poor fit]	
CC(C)CC(C(=O)Nc1oc(-c2ccccc2)c(-c2ccccc2)c1C#N)N1C(=O)c2ccccc2C1=O (stereo not drawn)	inconclusive: 32.6 µM [falling, partial curve, poor fit]	
CCC(=O)Nc1ccc(S(=O)(=O)N2CCc3ccccc32)cc1	inconclusive: 18.4 µM [activator, partial curve, poor fit]	
Cc1ccc(NC(=O)CCNC(=O)c2ccc(Br)cc2)cc1S(=O)(=O)N1CCOCC1		inactive: -6.98%
CCC1CCCCN1CCCNC(=O)c1ccc2c(c1)sc1nc(-c3ccc(F)cc3)cn12 (stereo not drawn)		inactive: 8.35%
Cc1nnc(SCC(=O)Nc2nccs2)s1		inactive: 0.329%
O=C(c1ccc(F)cc1)N1CCCC(c2ccccc2)C1 (stereo not drawn)	inconclusive: 6.51 µM [activator, single point]	
C=CCn1c(COc2cccc(C)c2C)nnc1SCC(=O)N1CCN(c2ccccc2)CC1	inconclusive: 29.1 µM [falling, single point]	
COc1ccc2c(c1)c(=O)c(C(=O)c1ccc(C)cc1)cn2Cc1ccccc1F	inconclusive: 23.1 µM [falling, single point]	
CC(=O)c1c(C)[nH]c(C(=O)OCC(=O)Nc2cc(C)on2)c1C		inactive: -6.5%
O=C(/C=C/c1ccccc1)Nc1cccc(C(=O)O)c1	inconclusive: 20.6 µM [activator, partial curve]	
COc1cc(OC)cc(-c2nc3ccccc3c(=O)n2OC(=O)c2ccccc2C)c1	inconclusive: 18.4 µM [falling, single point]	
CN(NC(=O)Nc1ccc(Cl)cc1)c1ncc(C(F)(F)F)cc1Cl	inconclusive: 29.1 µM [falling, single point]	
O=C(Nc1ccncc1)c1cc(-c2cccc(Br)c2)nc2ccccc12	inconclusive: 14.6 µM [falling, partial curve, poor fit]	
CCOc1cc2[nH]c(=S)n(CCN3CCCCC3CC)c(=O)c2cc1OCC (stereo not drawn)	inconclusive: 29.1 µM [falling, partial curve, poor fit]	
Cc1cccc(NC(=O)NC2COc3ccccc3C2)c1C (stereo not drawn)		inactive: 17.4%
Cc1sc2c3ccsc3ccc2[n+]1C		inactive: -3.24%
CCOc1cc(/C=C2/SC(=S)NC2=O)ccc1OC(=O)c1ccco1	inconclusive: 20.6 µM [falling, single point]	
CC(/C=N\NC(=O)CN1CCN(S(=O)(=O)c2ccc(C)cc2)CC1)=C\c1ccccc1	inconclusive: 32.6 µM [falling, partial curve, poor fit]	

SMILES	Potency	activity change, negative = cytotoxicity
CCn1c(=S)sc2c(=O)n(CC(=O)Nc3cccc(Cl)c3)c(C)nc21	inconclusive: 14.6 µM [falling, partial curve]	
Cc1ccc(Nc2ccc(C(=O)O)cc2[N+](=O)[O-])cc1	inconclusive: 23.1 µM [falling, partial curve, poor fit]	
CN(Cc1cccs1)c1ncnc2ccc(-c3ccc4cnn(C)c4c3)cc12	inconclusive: 7.31 µM [activator, partial curve, poor fit]	
CCn1cc(S(=O)(=O)c2ccc(Cl)cc2)c(=O)c2cc(OC)ccc21	inconclusive: 18.4 µM [activator, partial curve, poor fit]	
Cc1ccc(NC(=O)Cc2ccc3c(c2)CCCC3)cc1C		inactive: 0.224%
COc1ccc(NC(=O)c2cc(C)no2)cc1		inactive: -6.48%
CCCCn1c(CN2CCN(C(=O)OCC)CC2)nc2c1c(=O)n(C)c(=O)n2C		inactive: -6.72%
COCCn1c(=N)c(C(=O)NCC2CCCO2)cc2c(=O)n3ccccc3nc21 (stereo not drawn)	inconclusive: 14.6 µM [activator, partial curve]	
COc1ccc(CCn2c(=S)[nH]c(=O)c3nccnc32)cc1OC	inconclusive: 20.6 µM [falling, single point]	
CC12CCC(=O)N1C(C(=O)N1CCN(c3ccc([N+](=O)[O-])cc3)CC1)CS2 (stereo not drawn)	inconclusive: 16.4 µM [falling, partial curve, poor fit]	
Fc1ccc(C2CCCN2Cc2nc(CC3CC3)no2)cc1 (stereo not drawn)	inconclusive: 23.1 µM [activator, partial curve, poor fit]	
CN(C)CCCN(C(=O)COc1ccc(Cl)cc1)c1nc2cc3c(cc2s1)OCO3		inactive: -0.0072%
COc1ccc(NC(=O)c2cc(OC)c(OC)c(OC)c2)cn1	inconclusive: 6.51 µM [falling, single point]	
CCN(CC(O)c1cccc(O)c1)C(=O)C12CC3CC(CC(C3)C1)C2 (stereo not drawn)		inactive: -19.8%
O=C(Nc1ccccc1)c1cc2ccc3ccccc3c2s1		inactive: 0.0295%
O=S(=O)(c1cccc2cnccc12)N1CCCNCC1		inactive: 0.682%
Oc1cccc(/C=N/N(Cc2ccccc2)c2ccccc2)c1		inactive: 0.363%
CC(Oc1ccc(Br)cc1)C(=O)Nc1nc(-c2ccccn2)cs1 (stereo not drawn)	inconclusive: 5.8 µM [falling, full curve]	
Cc1cc(Nc2ccccc2F)n2nc(Cc3ccc(Cl)cc3)nc2n1	inconclusive: 3.66 µM [activator, partial curve, poor fit]	
C#CCOCCOCCOCCNc1nc(N2CCN(C(=O)Cn3cc(CCCCN)nn3)CC2)nc(N2CCN(C(=O)Cn3cc(CCCN=C(N)N)nn3)CC2)n1		inactive: -1.29%
O=C(CN(c1cccc(Cl)c1)S(=O)(=O)c1ccc(Cl)cc1)NCc1ccccn1	inconclusive: 20.6 µM [falling, single point]	
O=C(NCCc1ccccc1)C1CCN(S(=O)(=O)c2cccc3nsnc23)CC1	inconclusive: 20.6 µM [activator, partial curve, poor fit]	

Reprinted at random: 4 records from the list
SMILES	Potency	activity change, negative = cytotoxicity
Cc1cccc2cc3c(nc12)SC(=NCC1CCCO1)N(Cc1ccco1)C3 (stereo not drawn)		inactive: -6.4%
COc1ccc(C2=NN(c3nc(C(=O)O)cs3)C(O)(C(F)(F)F)C2)c(OC)c1 (stereo not drawn)		inactive: -6.3%
CC(C)CC(C(=O)Nc1oc(-c2ccccc2)c(-c2ccccc2)c1C#N)N1C(=O)c2ccccc2C1=O (stereo not drawn)	inconclusive: 32.6 µM [falling, partial curve, poor fit]	
CCC(C)Sc1nnc(CSc2nc3nc(C)cc(C)n3n2)o1 (stereo not drawn)	inconclusive: 29.1 µM [activator, single point]	
